Results reported in PMC10339035.
No constants are given. Whether binding was seen depends on the method and setting. Binding seen in cells or lysates may run through a third protein. These calls come from enrichment with a bait or labelling near it, and not all partners need be listed. For some assays here: Where a sequence is shown, tags or fusion partners need not be part of it. Values belong to the molecule of their own block, whether it stands above or below them.

Amino acid sequences for entries named in this document (tags omitted).
UniProt Q5T9C2: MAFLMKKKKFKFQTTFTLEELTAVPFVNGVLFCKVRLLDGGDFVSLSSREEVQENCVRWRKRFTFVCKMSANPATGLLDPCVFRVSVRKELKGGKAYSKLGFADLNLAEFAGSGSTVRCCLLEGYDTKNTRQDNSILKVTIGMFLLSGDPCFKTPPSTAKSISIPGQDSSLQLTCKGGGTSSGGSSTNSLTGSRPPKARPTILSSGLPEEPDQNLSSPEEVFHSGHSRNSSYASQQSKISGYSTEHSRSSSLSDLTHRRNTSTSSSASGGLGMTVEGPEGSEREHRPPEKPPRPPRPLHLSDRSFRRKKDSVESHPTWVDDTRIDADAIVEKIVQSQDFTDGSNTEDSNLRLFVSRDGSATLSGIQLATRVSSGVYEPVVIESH
UniProt P62491: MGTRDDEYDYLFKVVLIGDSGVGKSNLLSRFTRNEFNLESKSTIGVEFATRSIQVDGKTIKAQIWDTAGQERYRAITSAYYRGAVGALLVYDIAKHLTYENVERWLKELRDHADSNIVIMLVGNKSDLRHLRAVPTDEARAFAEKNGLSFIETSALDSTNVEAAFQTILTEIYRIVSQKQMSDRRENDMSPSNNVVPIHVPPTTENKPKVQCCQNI
UniProt Q99961: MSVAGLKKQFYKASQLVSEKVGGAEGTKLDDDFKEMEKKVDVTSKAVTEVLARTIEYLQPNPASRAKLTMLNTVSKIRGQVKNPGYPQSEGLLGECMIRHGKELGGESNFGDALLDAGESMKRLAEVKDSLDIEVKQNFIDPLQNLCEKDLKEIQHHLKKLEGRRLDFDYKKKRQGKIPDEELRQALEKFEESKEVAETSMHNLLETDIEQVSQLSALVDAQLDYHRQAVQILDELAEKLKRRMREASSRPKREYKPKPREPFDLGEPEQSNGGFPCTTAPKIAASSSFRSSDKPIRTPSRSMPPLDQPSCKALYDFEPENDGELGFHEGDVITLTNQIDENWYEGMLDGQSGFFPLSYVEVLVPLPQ
UniProt Q99962: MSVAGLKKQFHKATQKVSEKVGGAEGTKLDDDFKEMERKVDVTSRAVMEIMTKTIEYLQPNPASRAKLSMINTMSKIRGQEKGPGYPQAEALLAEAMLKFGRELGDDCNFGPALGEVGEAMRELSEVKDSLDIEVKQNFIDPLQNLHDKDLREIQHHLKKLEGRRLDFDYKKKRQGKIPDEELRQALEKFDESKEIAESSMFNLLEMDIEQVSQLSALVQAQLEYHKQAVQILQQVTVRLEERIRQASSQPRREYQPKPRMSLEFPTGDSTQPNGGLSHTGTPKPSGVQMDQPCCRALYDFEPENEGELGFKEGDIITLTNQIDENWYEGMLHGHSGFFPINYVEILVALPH

Columns and labels:
[1] = target: T1, WDR44::GFP (human) (UniProt Q5JSH3); assay: affinity purification with mass spectrometry; GFP-tagged bait in lysate of transfected HeLa cells (50 mM Tris pH 7.5, 150 mM NaCl, 1% NP-40) captured on anti-GFP nanobody magnetic beads, 2 h at 4°C; washes with 300 mM NaCl, 1% NP-40; LC-MS-MS; two independent experiments for each bait with a GFP-only control; filter: at least 3 spectral counts and bait to control ratio of 5 or more
T1 sequence: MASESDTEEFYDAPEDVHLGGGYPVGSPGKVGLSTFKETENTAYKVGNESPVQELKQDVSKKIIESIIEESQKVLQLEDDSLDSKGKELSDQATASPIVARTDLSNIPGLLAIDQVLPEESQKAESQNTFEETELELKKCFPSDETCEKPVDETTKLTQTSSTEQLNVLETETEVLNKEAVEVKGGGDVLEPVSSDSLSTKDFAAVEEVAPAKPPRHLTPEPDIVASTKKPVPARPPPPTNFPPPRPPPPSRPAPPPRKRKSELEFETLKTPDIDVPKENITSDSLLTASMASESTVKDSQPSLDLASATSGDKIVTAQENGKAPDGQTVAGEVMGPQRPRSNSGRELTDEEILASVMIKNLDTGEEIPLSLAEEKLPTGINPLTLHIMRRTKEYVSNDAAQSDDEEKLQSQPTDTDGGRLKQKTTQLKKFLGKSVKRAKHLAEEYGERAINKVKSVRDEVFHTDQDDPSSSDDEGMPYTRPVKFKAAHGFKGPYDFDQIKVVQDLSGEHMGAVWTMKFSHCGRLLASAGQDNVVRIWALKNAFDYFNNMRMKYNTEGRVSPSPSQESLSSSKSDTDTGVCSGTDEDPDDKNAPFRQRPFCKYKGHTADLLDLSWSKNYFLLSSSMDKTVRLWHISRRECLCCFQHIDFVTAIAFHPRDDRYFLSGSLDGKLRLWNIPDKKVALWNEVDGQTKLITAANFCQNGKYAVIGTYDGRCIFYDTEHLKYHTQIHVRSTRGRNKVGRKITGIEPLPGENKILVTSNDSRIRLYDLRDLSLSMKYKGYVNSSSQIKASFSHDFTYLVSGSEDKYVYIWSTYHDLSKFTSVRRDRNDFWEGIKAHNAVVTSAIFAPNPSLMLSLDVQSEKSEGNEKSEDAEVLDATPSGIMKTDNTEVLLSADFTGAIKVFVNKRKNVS

[2] = target: FAM102A::GFP (human) (UniProt Q5T9C2); assay: as above

binding [1]: binds
Molecule: FAM102A (from UniProt Q5T9C2 1-384)

binding [1]: binds
Molecule: RAB11A (from UniProt P62491 1-216)

binding [2]: binds
Molecule: SH3GL1 (from UniProt Q99961 1-368)

binding [2]: binds
Molecule: SH3GL2 (from UniProt Q99962 1-352)

binding [2]: binds
B1: WDR44 (protein, UniProt Q5JSH3 1-913)
chain: T1 sequence
